# According to PubChem BioAssay AID493014 (National Center for Advancing Translational Sciences (NCATS), 2011):
# The list shows a part of the results. Further columns of the screen follow, without active or inactive calls. Most of these compounds were active or inconclusive in the main read-out, so they are no random draw. Potencies come from curve fits of mixed quality, noted in brackets.
# Experiment: qHTS Assay to Find Inhibitors of Chronic Active B-Cell Receptor Signaling
# Settings: ABC-DLBCL IkBa-CBG/CBR reporter, luminescence ratio (green luciferase fused to IkBa over red control in TMD8 lymphoma cells), 4 h
# Summary of the method: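 TMD8 human ABC-DLBCL cells with doxycycline-inducible IκBα–green luciferase fusion and unfused red luciferase, in 0.5% FBS medium; compounds up to 46 uM, 4 h at 37C. Green/red luminescence ratio, filter-overlap corrected, fitted to concentration-response curves.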
# [1] = measured here: CBR red luminescence, cell number
SMILES,AC50 [1],AC50 (measured here: IkBa-CBG green luminescence)
COc1ccc(-c2noc(CCc3ccccc3)n2)cc1,"0.891 µM [rising, full curve]",
COCCSc1nnc(NC(=O)c2ccc([N+](=O)[O-])cc2)s1,"31.6 µM [rising, partial curve, poor fit]",
Cc1cc(SC#N)cc(C)c1NC(=O)CCl,"13 µM [falling, single point]",
Cc1cc(NC(=O)CCC(=O)N(Cc2ccccc2)C(C(=O)NC2CCCC2)c2ccc(C)o2)no1 (stereo not drawn),"5.01 µM [rising, partial curve, poor fit]",
C=C(C)[C@@H]1CC=C(CN2CCC(N3CCC(C(=O)N4CCCC4)CC3)CC2)CC1,"22.4 µM [falling, single point]",
CCn1c(=O)n(CC)c2cc(S(N)(=O)=O)ccc21,"29.1 µM [rising, single point]",
Cc1cc(=S)nc(-c2ccccn2)[nH]1,"35.5 µM [rising, single point]",
CCC(C)NCCOCCOc1ccc(Cl)c(C)c1C (stereo not drawn),"18.4 µM [falling, single point]",
O/N=C/c1ccc(OCC(O)COc2ccc(/C=N/O)cc2)cc1,"0.13 µM [falling, full curve, poor fit]",
CCOC(=O)c1c(CN2CCN(CCO)CC2)n(-c2ccccc2)c2cc(Br)c(O)cc12,"0.112 µM [falling, full curve, poor fit]",
COc1ccc(-c2noc(CCC(=O)Nc3cccc(C)c3)n2)cc1,"11.6 µM [rising, partial curve, poor fit]",
O=C(N/N=C/c1ccc([N+](=O)[O-])cc1)c1cnccn1,"7.08 µM [falling, full curve, poor fit]",
O=C(CN1CCCCC1)N/N=C/c1cccc(Cl)c1,"7.94 µM [rising, partial curve, poor fit]",
O=C(CSc1nc2[nH]ncc2c(=O)n1-c1ccc(Cl)c(Cl)c1)NCc1ccccc1Cl,"15.8 µM [falling, partial curve]","14.1 µM [rising, partial curve, poor fit]"
COc1ccccc1C(=O)NCCC(=O)NCc1cccs1,"4.11 µM [rising, single point]",
CC(C)(C)c1csc(NC(=O)c2ccccc2O)n1,"1.78 µM [falling, partial curve]",
COC(=O)c1ccc([C@H]2CC(=O)O2)cc1,"15.8 µM [falling, partial curve, poor fit]",
O=C(c1cc(COc2c(F)cccc2F)on1)N1CCC(c2ccccc2F)C1 (stereo not drawn),"2 µM [rising, partial curve, poor fit]",
CCCCOC(=S)NC(=O)c1sc2ccccc2c1Cl,"11.2 µM [rising, partial curve]",
Cc1cc(O)cc(O)c1C(=O)Cc1cnn(-c2ccccc2)c1,"3.66 µM [rising, single point]",
CCCS(=O)(=O)c1cnc(C2COc3ccccc3O2)nc1N (stereo not drawn),"12.6 µM [falling, single point]",

SMILES,AC50 [1],AC50 (measured here: IkBa-CBG green luminescence)
c1ccc(Nc2nc3ccccc3n3nnnc23)cc1,"0.631 µM [falling, full curve]",
CCCC(=O)Nc1cccc(Oc2ccc3c(c2)C(=O)NC3=O)c1,"17.8 µM [falling, single point]",
O=C(COc1ccccc1[N+](=O)[O-])N/N=C/c1cccs1,"25.9 µM [rising, partial curve, poor fit]",
O=C(Cc1ccsc1)OCC(=O)c1ccccc1,"4.11 µM [rising, partial curve]",
Cc1ccc(S(=O)(=O)NC(=O)c2cc(C)n(-c3ccc(N(C)C)cc3)c2C)cc1,"1.03 µM [rising, full curve, poor fit]",
Cn1c(=O)c2c(ncn2CC(COCc2ccccc2Cl)OCc2ccccc2Cl)n(C)c1=O (stereo not drawn),"20 µM [falling, partial curve, poor fit]",
O=C(Cc1c[nH]c2ccccc12)NCc1ccc2c(c1)OCO2,"12.6 µM [falling, partial curve]",
O=C(Nc1cccc(F)c1)NC1(C(=O)N2CCOCC2)CCCCC1,"11.2 µM [rising, partial curve]",
CCOc1ccc(-c2nnc(-c3cccs3)o2)cc1,"1.58 µM [rising, full curve]",
c1ccc(CN2CCN(c3nc(-c4ccccc4)nc(-n4ccnc4)n3)CC2)cc1,"22.4 µM [falling, single point]",
Cc1nn(-c2ccccc2)c(CC(C)(C)C(=O)O)c1C(=O)O,"29.1 µM [rising, single point]",
CCOc1ccc(N(Cc2ccccc2F)C2=NC3CS(=O)(=O)CC3S2)cc1 (stereo not drawn),"12.6 µM [falling, single point]",
CC(=O)O[C@H]1[C@H](O)[C@H](Oc2c(O)c(C)c3c4c2[C@@H](C)CC[C@@H]4[C@@H](C)C[C@H]3C=C(C)C)O[C@@H](C)[C@H]1O,"29.1 µM [rising, single point]",
COc1ccc(/C=N/NC(=O)c2ccco2)cc1COc1ccc(F)cc1,"10 µM [rising, partial curve, poor fit]",
COC(Cn1cc(C)c(=O)[nH]c1=O)OC,"8.91 µM [rising, partial curve, poor fit]",
COC(=O)c1oc2nc(C)cc(C)c2c1N,"23.1 µM [falling, partial curve, poor fit]",
NC1=NC(=Nc2ccccc2)c2ccccc21,"5.8 µM [rising, full curve, poor fit]",
CN(C)c1ccc(-n2cccc2/C=N/n2cnnc2)cc1,"32.6 µM [falling, partial curve, poor fit]",
CCOc1cccc2sc(N(CCCN(C)C)C(=O)c3ccc(S(=O)(=O)N(CC)Cc4ccccc4)cc3)nc12,"15.8 µM [falling, single point]",
Cc1ccccc1C(=O)N1CCC(C(N)=O)CC1,"2.91 µM [rising, single point]",
Cc1ccc(OC(=O)C(F)(F)F)c2c1NCCC2,"1.64 µM [rising, partial curve, poor fit]",

# Quoted from the listing.
# CN(C)c1ccc(-n2cccc2/C=N/n2cnnc2)cc1 | AC50 [1]: 32.6 µM [falling, partial curve, poor fit]
# Cc1ccccc1C(=O)N1CCC(C(N)=O)CC1 | AC50 [1]: 2.91 µM [rising, single point]
# COc1ccc(/C=N/NC(=O)c2ccco2)cc1COc1ccc(F)cc1 | AC50 [1]: 10 µM [rising, partial curve, poor fit]
